The nature of the series: In vivo ligand release of alb-IR700 after NIR light exposure. Further details: species or system athymic nude mice. Conditions: alb-IR700 50 μg i.v.; L-NaAA 80 mg or L-cysteine 10.5 mg via tail vein 2 minutes before NIR 20 J cm^-2.

As for `O=C1O[C@H]([C@@H](O)CO)C([O-])=C1O.[Na+]` [L-NaAA, L-sodium ascorbate], the “700 nm fluorescence after NIR light exposure of alb-IR700” value was “fluorescence was significantly decreased compared to the condition without L-NaAA”. The result for `N[C@@H](CS)C(=O)O` [L-cysteine] reads “no obvious changes in fluorescence”.

These data come from US20240101685A1, “NEAR INFRARED PHOTOIMMUNOTHERAPY (NIR-PIT) COMBINATION THERAPY TO TREAT CANCER” (THE UNITED STATES OF AMERICA, as represented by the …, priority 2021, published 2024).
